Experimental data published in paper PMC7200016.

The chains behind the UniProt entries cited, without tags or fusion partners.
UniProt Q23978: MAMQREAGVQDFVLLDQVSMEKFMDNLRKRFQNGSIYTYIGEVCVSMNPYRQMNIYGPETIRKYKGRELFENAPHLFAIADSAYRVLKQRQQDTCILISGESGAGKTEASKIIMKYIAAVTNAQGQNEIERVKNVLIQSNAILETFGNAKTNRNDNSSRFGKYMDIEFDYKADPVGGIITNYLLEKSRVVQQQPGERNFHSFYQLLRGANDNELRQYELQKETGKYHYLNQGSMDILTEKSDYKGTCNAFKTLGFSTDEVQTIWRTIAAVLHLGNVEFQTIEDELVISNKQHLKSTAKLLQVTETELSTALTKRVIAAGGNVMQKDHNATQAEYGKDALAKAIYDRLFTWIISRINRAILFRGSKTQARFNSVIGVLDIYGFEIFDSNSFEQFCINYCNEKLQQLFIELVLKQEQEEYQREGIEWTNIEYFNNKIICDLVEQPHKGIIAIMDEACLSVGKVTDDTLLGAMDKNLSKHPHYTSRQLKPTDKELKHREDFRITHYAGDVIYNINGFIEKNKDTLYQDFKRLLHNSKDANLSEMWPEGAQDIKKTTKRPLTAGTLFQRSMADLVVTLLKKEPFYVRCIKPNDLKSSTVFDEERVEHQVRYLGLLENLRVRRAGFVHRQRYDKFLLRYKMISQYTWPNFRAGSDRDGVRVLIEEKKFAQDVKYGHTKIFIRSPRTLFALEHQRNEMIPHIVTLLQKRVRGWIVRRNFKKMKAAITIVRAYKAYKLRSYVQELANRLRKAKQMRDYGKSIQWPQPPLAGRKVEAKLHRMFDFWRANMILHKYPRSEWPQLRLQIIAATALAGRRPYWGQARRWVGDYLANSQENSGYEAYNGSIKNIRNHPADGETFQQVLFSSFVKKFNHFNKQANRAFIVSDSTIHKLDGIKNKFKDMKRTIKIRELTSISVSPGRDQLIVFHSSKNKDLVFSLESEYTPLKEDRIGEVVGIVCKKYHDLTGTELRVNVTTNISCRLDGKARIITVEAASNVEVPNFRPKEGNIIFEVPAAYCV

Molecular target: Full-length DAAM-PD tagged with Flag (Drosophila) (UniProt M9MSM5)
Experiment: co-IP; S2 cells co-expressing GFP-tagged Myo1D and a Flag-tagged protein; lysates incubated with anti-Flag coated agarose beads, intensive wash, elution in Laemmli buffer, western blot with anti-GFP and anti-Flag

binding: binds
Substance: Full-length Myo1D tagged with GFP (from UniProt Q23978 1-1011)

Results are given in words; binding and its absence hold for the method and conditions named. In cells and extracts the contact can be indirect. A result given as binding can be weak or reduced; the word gives no strength.
